This is an account of results in PubChem BioAssay AID445 (National Center for Advancing Translational Sciences (NCATS), 2006).

Several values for one entry are separate records, joined by “and”; a condition that tells them apart may be missing. Identical values can stand only once. The list shows a part of the results. These are further read-outs of the screen, such as a control signal, another cell line or another target. No call is given for them. The list favours compounds with an active or inconclusive main result. Words in brackets tell the shape of the fitted curve; partial curves, single points and poor fits give uncertain potencies.

The nature of this experiment: IkB Signaling. Conditions: ABC-DLBCL IkBa-CBG/CBR dual luciferase ratio (green luciferase fused to IkBa over red control in OCI-Ly3 lymphoma cells), 4 h. Put shortly: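 Curves were fitted separately to fusion (green), unfused (red) and ratio luminescence, then classed by r2, magnitude and activity. Cells: OCI-Ly3, 4 h compound plus doxycycline at 37C; 10 uM MG-132 defined full response.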
[1] abbreviates: measured here: control luc red channel unless noted.
The mark [2] stands for this setting: measured here: IkB-luc green channel.
Setting [3] is: measured here: control luc red channel.

Broadly, the AC50 is the concentration giving half of the maximal activity seen. For the compound `O=C(NCC(c1ccc(Cl)cc1)N1CCCCC1)c1ccccc1` (centres undefined), under setting [1], the AC50 is 20 µM [falling, partial curve].

As for `CCCOc1ccc(C(=O)N(Cc2cccs2)C2CCS(=O)(=O)C2)cc1` (centres undefined), the concentration at half-maximal activity (AC50) under setting [1] was 39.8 µM [rising, single point].

On to `Cc1ccc(NCc2nc3ccccc3n2CCOc2ccccc2C)cc1`, for which the concentration at half-maximal activity (AC50) under setting [1] is 10 µM [falling, partial curve].

Consider `Nc1c(C(=O)Nc2ccccc2Cl)nnn1Cc1cccc(Cl)c1`, for which, under setting [1], the AC50 is 0.794 µM [falling, full curve].

Turning to `CCNc1nc2c(c(=O)n(C)c(=O)n2C)n1CC(O)COc1ccccc1` (centres undefined), the concentration at half-maximal activity (AC50) under setting [1] was 25.1 µM [falling, partial curve].

Consider `CCOC(=O)C1=C(O)CCn2c1nc1ccccc12`, for which the half-maximal activity concentration (AC50) under setting [1] is 10 µM [falling, partial curve].

Regarding `O=C(NCc1cccc(Br)c1)c1ccc(-n2cnc3cccnc32)cc1`, the half-maximal activity concentration (AC50) under setting [1] is 25.1 µM [falling, single point].

With `Cc1ccc(-n2ncc3c(N4CCC(C)CC4)ncnc32)cc1C`, the concentration at half-maximal activity (AC50) under setting [1] is 12.6 µM [falling, partial curve].

As for `Cc1cccc(-c2noc(CNC(=O)c3ccc(C)cc3C)n2)c1`, under setting [1], the AC50 is 31.6 µM [falling, single point].

Take `CCCCC(=O)Nc1cccc(NC(=O)c2ccc(Br)o2)c1`: under setting [1], the concentration at half-maximal activity (AC50) is 12.6 µM [falling, partial curve].

Turning to `CCC1CCCCN1C(=O)CSc1nc(N)c(NC(=O)c2ccco2)c(=O)[nH]1` (centres undefined), the concentration at half-maximal activity (AC50) under setting [1] is 7.94 µM [falling, partial curve].

`C[n+]1cc2c3c(ccc2c2ccc4cc5c(cc4c21)OCO5)OCO3`: the AC50 is, setting by setting: under setting [2], 6.31 µM [falling, full curve]; under setting [3], 2.51 µM [falling, full curve] and 3.98 µM [falling, full curve].

In the case of `CC(C)(C)c1ccc(OCC(=O)NCC2(N3CCOCC3)CCCCC2)cc1`, the AC50 under setting [1] is 15.8 µM [falling, partial curve].

Consider `COc1ccccc1-c1cc2nc(C)c(CCC(=O)NCCc3cccc(C)c3)c(C)n2n1`, for which the AC50 under setting [1] was 1.26 µM [falling, full curve].

`CCc1cccc(-n2c(=O)c3cccnc3n2CC(=O)NCc2ccc(C)cc2)c1`: the half-maximal activity concentration (AC50) under setting [1] is 0.1 µM [rising, full curve, poor fit].

As to `O=C(CCCCCn1c(=O)c2sccc2n(CC(=O)Nc2cc(C(F)(F)F)ccc2Cl)c1=O)NCc1ccccc1Cl`, the AC50 under setting [1] was 0.794 µM [falling, partial curve].

Consider `Cc1ccc(NC(=O)Cn2cnc3onc(-c4ccc(F)cc4)c3c2=O)c(Cl)c1`, for which, under setting [1], the concentration at half-maximal activity (AC50) is 39.8 µM [falling, single point].

On to `CCN1CCN(Cc2nc3c(c(=O)n(C)c(=O)n3C)n2Cc2ccc(Cl)cc2Cl)CC1`, for which the AC50 under setting [2] was 3.98 µM [rising, partial curve] and the AC50 under setting [3] is 7.94 µM [falling, full curve].

Turning to `CC(C)C(=O)Nc1cccc(NC(=O)c2cc3ccccc3o2)c1`, the AC50 under setting [1] was 5.01 µM [falling, partial curve].

As to `CC(=O)Nc1ccc(Nc2ncnc3c2cnn3C)cc1`, the concentration at half-maximal activity (AC50) under setting [1] is 12.6 µM [rising, partial curve].

Take `COc1ccc(C2(NC(C)=O)CCN(C(=O)CCC(=O)O)CC2)cc1`: the AC50 under setting [1] is 794 nM [rising, partial curve, poor fit] [measured here: IkB-luc green channel].

`Cc1ccc(C)n1-c1nnc(N2CCCC(C(=O)Nc3ccccc3Br)C2)s1` (centres undefined): under setting [1], the AC50 was 25.1 µM [falling, partial curve].

Take `CC1CCN(S(=O)(=O)c2ccc3c(c2)N(CC(=O)NCCCN2CCCCC2)C(=O)CS3)CC1`: the half-maximal activity concentration (AC50) under setting [1] is 7.94 µM [falling, partial curve, poor fit].

`CCOC(=O)CSc1nnc(CNC(=O)Cc2ccccc2)n1-c1ccccc1OC`: the half-maximal activity concentration (AC50) under setting [1] is 1.26 µM [falling, partial curve].

In the case of `Nc1ccc(-c2n[nH]c(=O)c3ccccc23)cc1N`, under setting [1], the half-maximal activity concentration (AC50) is 10 µM [falling, partial curve].

For `CCOc1ccc(S(=O)(=O)NCCc2c(C)[nH]c3c(Cl)cccc23)cc1C`, the AC50 under setting [1] was 31.6 µM [falling, partial curve].

Turning to `Cc1ccc(Cl)cc1N1CCN(C(=O)CSc2cc(=O)n(C)c3ccccc23)CC1`, the AC50 under setting [1] is 7.94 µM [falling, partial curve].

Regarding `CC(C)c1ccc(OCc2ccc(C(=O)N3CCN(c4ccccn4)CC3)cc2)cc1`, under setting [1], the AC50 is 15.8 µM [falling, partial curve].

For `CC1=C(C(=O)Nc2cc(Cl)ccc2C)C(c2sccc2C)n2ncnc2N1` (centres undefined), the half-maximal activity concentration (AC50) under setting [1] is 1.58 µM [falling, partial curve].

On to `COc1ccc(C(=O)Nc2ccc3nc(SCC(=O)N(C)c4ccccc4)sc3c2)cc1`, for which, under setting [1], the AC50 is 2.51 µM [falling, full curve].

Regarding `CC(C)(C)c1ccc2c(c1)N(CC(=O)NCCCN1CCN(c3ccccc3F)CC1)C(=O)CO2`, the half-maximal activity concentration (AC50) under setting [1] was 31.6 µM [falling, partial curve].

Turning to `O=C1c2ccccc2C(Nc2ccc(F)c(Cl)c2)N1Cc1ccco1` (centres undefined), the concentration at half-maximal activity (AC50) under setting [1] is 3.98 µM [falling, partial curve].

Turning to `CCOc1ccc(NC(=O)CSc2nnc(CNC(=O)C34CC5CC(CC(C5)C3)C4)n2CC)cc1`, the half-maximal activity concentration (AC50) under setting [1] was 12.6 µM [falling, partial curve].

Turning to `CCOc1ccc2[nH]c(=O)c(CN(Cc3ccco3)Cc3nnnn3Cc3ccccc3)cc2c1`, under setting [1], the concentration at half-maximal activity (AC50) is 25.1 µM [falling, partial curve].

Take `N#Cc1c(N)nc(SCC(=O)OCc2ccccc2)c(C#N)c1-c1ccco1`: the AC50 under setting [1] was 12.6 µM [falling, partial curve].

For the compound `Cc1cccc2cc(CN(CC3CCCO3)C(c3nnnn3Cc3ccco3)C(C)C)c(=O)[nH]c12` (centres undefined), the half-maximal activity concentration (AC50) was 31.6 µM [rising, single point] under setting [2] and 39.8 µM [falling, single point] under setting [3].

In the case of `CC(Oc1ccccc1)C(=O)Nc1ccccc1C(=O)OCc1cc(=O)n2nc(C(C)C)sc2n1` (centres undefined), the AC50 under setting [1] is 15.8 µM [falling, partial curve].

Turning to `Cc1c(C(=O)N(C)C)sc2c1c(=O)n(-c1ccc(Cl)c(Cl)c1)c(=O)n2CC(=O)N1CCCCC1C` (centres undefined), the concentration at half-maximal activity (AC50) under setting [1] was 7.94 µM [rising, partial curve, poor fit].

On to `CCCC12CN3CC(CCC)(CN(C1)C3c1ccc(OC(C)C)cc1)C2=O` (centres undefined), for which, under setting [1], the AC50 is 10 µM [falling, partial curve].

Consider `CSc1nc2c(sc3ccccc32)c(=O)n1Cc1ccc(C)cc1`, for which the AC50 under setting [1] is 0.0631 µM [falling, full curve, poor fit].

With `CCn1c(=O)c(=O)n(CC)c2cc(N3CCCCC3)c(NC(=O)c3ccccc3OC)cc21`, under setting [1], the concentration at half-maximal activity (AC50) is 2 µM [falling, partial curve, poor fit].

As to `CCOc1ccc(-c2nc(CSCC(=O)NCCc3ccc(OCC)c(OCC)c3)c(C)o2)cc1`, the concentration at half-maximal activity (AC50) under setting [1] is 3.16 µM [falling, partial curve].

As to `COc1ccccc1-c1c(C)nn2c(N3CCN(c4ccccc4)CC3)cc(C)nc12`, under setting [1], the AC50 is 20 µM [falling, single point].

For the compound `O=C(NCCc1ccc(Cl)cc1)C(=O)NCC(c1cccs1)S(=O)(=O)c1cccs1` (centres undefined), the AC50 under setting [1] is 20 µM [falling, single point].

Regarding `Cc1ccc(NC(=O)c2noc3c2CCCCC3)cc1`, the concentration at half-maximal activity (AC50) under setting [1] is 3.16 µM [falling, partial curve].

`COc1ccc(C(=O)Nc2cc(-c3nc4ccccc4s3)ccc2OC)cc1`: the AC50 under setting [1] was 2 µM [rising, partial curve].

For the compound `O=C(Nc1ccc2nc(SCC(=O)N3CCOCC3)sc2c1)c1ccc(Br)cc1`, the half-maximal activity concentration (AC50) under setting [1] was 0.2 µM [falling, full curve, poor fit].

`COC(=O)c1ccc(NC(=O)CCc2c(C)nc3c(c(C)nn3C(C)(C)C)c2C)cc1`: the half-maximal activity concentration (AC50) under setting [1] is 20 µM [falling, partial curve].

Regarding `CCN(C(=O)CSc1nc(-c2ccccc2)no1)c1ccccc1`, the concentration at half-maximal activity (AC50) under setting [1] is 12.6 µM [falling, partial curve].

Regarding `O=c1c2ccccc2nnn1CSc1nnc(-c2ccc3c(c2)OCO3)o1`, under setting [1], the concentration at half-maximal activity (AC50) was 25.1 µM [falling, partial curve].

Consider `O=S(=O)(Nc1ccc(-c2nc3ccccc3o2)cc1)c1ccccc1`, for which the half-maximal activity concentration (AC50) under setting [1] was 31.6 µM [falling, single point].

Consider `Cc1ccccc1CSc1nc(-c2cccc(F)c2)nc2c1Cc1c(CO)cnc(C)c1O2`, for which the AC50 under setting [1] is 39.8 µM [falling, single point].

Regarding `COc1ccc(OC)c(CNC(=O)c2nn(C)c3c2CS(=O)(=O)c2ccccc2-3)c1`, the half-maximal activity concentration (AC50) under setting [1] was 15.8 µM [falling, partial curve].

`COc1ccc(N2CCN(C(=O)CN3C(=O)COc4ccc(S(=O)(=O)N5CCC(C)CC5)cc43)CC2)cc1`: the AC50 under setting [1] was 31.6 µM [falling, single point].

`Cc1ccc2nc(-c3ccc(C)o3)c(Nc3ccc4c(c3)OCCO4)n2c1`: the AC50 under setting [1] was 15.8 µM [falling, partial curve].

For the compound `CCOc1cc(CNC(=O)c2ccc3nc(C(C)C)oc3c2)cc(OCC)c1OCC`, under setting [1], the AC50 is 20 µM [falling, partial curve, poor fit].

With `CCCCN(CC)C(=O)c1nn(-c2ccc(OC)cc2)c(=O)c2c1c1ccccc1n2C`, the AC50 under setting [1] is 7.94 µM [falling, single point].

`COc1ccc(OC)c(CNC(=O)c2ccc3c(c2)c(C)c(C)n3C)c1`: the AC50 under setting [1] is 15.8 µM [falling, partial curve].

For the compound `O=C(CSc1nc2ncccc2o1)Nc1cccc(C(F)(F)F)c1`, under setting [1], the half-maximal activity concentration (AC50) was 3.16 µM [rising, partial curve].

For `CCS(=O)(=O)c1oc(-c2ccc(F)cc2)nc1S(=O)(=O)c1ccccc1`, the AC50 under setting [1] is 5.01 µM [falling, partial curve].

With `Cc1ccc(NC(=O)C2CCCN2S(=O)(=O)c2ccc3c(c2)CCC(=O)N3)cc1Cl` (centres undefined), the AC50 under setting [1] is 12.6 µM [falling, partial curve].
